Data as given in PubChem BioAssay AID652272 (Drosophila RNAi Screening Center, 2013)
Aim: 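Genome-wide knock-down search for components of Hedgehog signalling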 (primary screen). Cells: Drosophila clone 8 (Cl8) cells. Knock-down reagent: long dsRNA against Drosophila genes. Measured: 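Plate reader light from a firefly reporter under a ptc promoter fragment that responds to Hedgehog, with Renilla light as transfection reference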. Reading the numbers: firefly Hh reporter signal: higher = more ptc reporter light; Renilla reference signal: higher = more Renilla control light. Call rule: 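Called a hit if the two-replicate mean z-score lies below -2 or above +3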. Meaning of the calls: active = hit: reporter lowered or raised; inactive = not a hit.
The deposit covers about 21,000 reagents; below is a random part of those with a known target gene and a result. Of all reagents, 503 (2.4%) were called active. 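Raw plate light values, not normalised; calls rest on replicate z-scores that were not deposited; hits include reporter decreases as well as increases.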 A number with no mark means an inactive call. Names joined by + are all predicted targets of the reagent. No sequences are given here. Not given: the amount of reagent, the time to read-out.

no.	predicted target	dsRNA	firefly Hh reporter signal, replicate 1	firefly Hh reporter signal, replicate 2	Renilla reference signal, replicate 1	Renilla reference signal, replicate 2
1	aPKC (GeneID 47594)	DRSC05515	1.46e5	2.63e5	3792	10538
2	aPKC (GeneID 47594)	DRSC07639	68557	43762	1328	3387
3	CG4955 (GeneID 32692)	DRSC19927	1.02e5	1.53e5	2315	2870
4	RpL38 (GeneID 3355144)	DRSC07818	32194 (active)	14577	2514	2480
5	mthl5 (GeneID 41438)	DRSC16155	65861	81856	2264	2361
6	CG32299 + CG32298	DRSC07980	91819	1.47e5	3280	5994
7	Sodh1 (GeneID 40836)	DRSC12605	1.48e5	1.02e5	5752	3874
8	CG3719 (GeneID 44736)	DRSC18493	6.35e5	1.03e5	3488	3488
9	Prosbeta4 (GeneID 34999)	DRSC02603	44180 (active)	35084	1888	4124
10	timeout (GeneID 41615)	DRSC12950	46333	1.58e5	10406	3643
11	timeout (GeneID 41615)	DRSC17078	70929	65011	2199	1948
12	timeout (GeneID 41615)	DRSC17079	1.14e5	1.07e5	2983	2624
13	timeout (GeneID 41615)	DRSC17080	79296	76976	2807	2230
14	timeout (GeneID 41615)	DRSC17081	1.58e5	1.10e5	5206	2937
15	CG17105 (GeneID 34466)	DRSC02574	95141	40662	2041	3610
16	CG30083 (GeneID 246444)	DRSC05572	1.41e5	2.80e5	4378	11433
17	Spn100A (GeneID 43642)	DRSC14596	1.25e5	1.12e5	2854	3105
18	dare (GeneID 36203)	DRSC07602	76428	60870	2992	2304
19	can (GeneID 45432)	DRSC10664	4.60e5	62198	2368	2368
20	mxt (GeneID 33686)	DRSC00551	58540	76848	3081	3112
21	eIF4G1 (GeneID 43839)	DRSC17218	1.05e5	96563	2061	2758
22	Ice2 (GeneID 42507)	DRSC14268	1.32e5	81172	5421	3448
23	Grl58a (GeneID 37509)	DRSC04145	1.28e5	78365	3173	5645
24	CG2493 (GeneID 35316)	DRSC02707	57152	40537	2784	1405
25	Ubc7 (GeneID 44054)	DRSC20299	76059	1.62e5	2441	6041
26	Usp39 (GeneID 32881)	DRSC20032	1.50e5	1.04e5	2903	2394
27	Taf10b (GeneID 33468)	DRSC00792	1.17e5	99894	2881	2393

Records listed so far called active (2):
predicted target	dsRNA	firefly Hh reporter signal, replicate 1	firefly Hh reporter signal, replicate 2	Renilla reference signal, replicate 1	Renilla reference signal, replicate 2
RpL38 (GeneID 3355144)	DRSC07818	32194 (active)	14577	2514	2480
Prosbeta4 (GeneID 34999)	DRSC02603	44180 (active)	35084	1888	4124

The list goes on:
no.	predicted target	dsRNA	firefly Hh reporter signal, replicate 1	firefly Hh reporter signal, replicate 2	Renilla reference signal, replicate 1	Renilla reference signal, replicate 2
28	CG13999 (GeneID 33826)	DRSC02331	1.23e5	54579	3165	5609
29	Acp76A (GeneID 40078)	DRSC09665	75914	1.24e5	2597	3289
30	Ir60b (GeneID 7354400)	DRSC04217	91444	54343	1581	5376
31	beta3GalTII (GeneID 35848)	DRSC07253	78816	49664	1530	3936
32	CIAPIN1 (GeneID 49424)	DRSC03559	75808	64189	3812	3651
33	CG17122 (GeneID 40226)	DRSC10245	1.08e5	1.47e5	4150	4244
34	shu (GeneID 45360)	DRSC04484	92328	80180	4156	3388
35	PH4alphaNE1 (GeneID 43625)	DRSC16546	77616	74756	1569	2180
36	CG14205 (GeneID 32952)	DRSC19560	1.08e5	2.98e5	4263	11987
37	trv (GeneID 43362)	DRSC13846	49307	2.75e5	14089	5525
38	trv (GeneID 43362)	DRSC14559	1.28e5	72528	4513	2301
39	trv (GeneID 43362)	DRSC14560	1.44e5	1.13e5	4804	3235
40	trv (GeneID 43362)	DRSC14561	2.07e5	1.67e5	6728	4154
41	rb (GeneID 31381)	DRSC18826	82992	1.99e5	3252	7452
42	Skadu (GeneID 8673966)	DRSC01490	1.18e5	1.81e5	3538	7993
43	mthl7 (GeneID 38910)	DRSC10852	31586	59952	1659	3008
44	CG13510 (GeneID 37596)	DRSC04152	1.27e5	67354	3162	6048
45	Cyp4ad1 (GeneID 35821)	DRSC07369	1.04e5	64068	4244	2743
46	CG30291 (GeneID 246534)	DRSC03842	1.38e5	1.98e5	8778	6995
47	Pkg21D (GeneID 33253)	DRSC00772	92826	97042	4716	4449
48	CG15543 (GeneID 43647)	DRSC15081	81981	1.36e5	1340	7318
49	beg (GeneID 39910)	DRSC10923	75744	70064	3322	2761
50	sbb (GeneID 44027)	DRSC05723	88172	2.58e5	2899	10486
51	sbb (GeneID 44027)	DRSC07676	93281	33744	2859	2794
52	CG8468 (GeneID 36577)	DRSC07190	1.24e5	42525	3520	1221
53	ng3 (GeneID 31299)	DRSC18804	80000	2.28e5	3543	10396
54	Serinc (GeneID 39827)	DRSC11296	78138	51385	2984	2018
55	Ucp4B + asRNA:CR43465	DRSC02665	1.02e5	76741	2395	6966
56	mfrn (GeneID 43353)	DRSC15687	1.05e5	1.11e5	3968	3318
57	CG9578 (GeneID 33018)	DRSC20694	1.89e5	1.35e5	4000	2944
